Results taken from the supplement of paper PMC9135407.
Structures can show the parent of a compound that is named as a salt. ± gives the standard deviation of the averaged measurements. Some of the results follow. Plates or batches differ in their baseline, so values are only roughly comparable.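 Primary human stellate myofibroblasts activated in culture; inactivation shown by regained lipid droplets. Readout: fraction of Hoechst-counted cells exceeding a per-plate Bodipy threshold, duplicate wells, each plate with DMSO negative and nortriptyline positive controls. Hits: control-normalized score beyond the plate's top-tenth-percentile nortriptyline wells, or among its three best wells. Final well concentrations unstated.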

Test system: primary human hepatic stellate cells (donor 1)
Assay: percent Bodipy-positive cells; higher = more lipid droplet accumulation
Conditions: 48 h
[1] = library stock concentration: 1 mM
[2] = library stock concentration: 10 mM
[3] = library stock concentration: 3.33 mM
[4] = library stock concentration: 400 uM
[5] = library stock concentration: 2 mM

## CCCC/C=C/C=C/C=C\CCCCCCCC(=O)O [9(Z),11(E),13(E)-Octadecatrienoic Acid]
[1]
  percent Bodipy-positive cells: 7.55 ± 4.6%

## Nc1nc(NCCc2ccc(O)cc2)nc2nc(-c3ccco3)nn12
[2]
  percent Bodipy-positive cells: 8.26 ± 2.2%

## CCCCC[C@H](O)/C=C/[C@H]1CC[C@H](O)[C@@H]1C/C=C\CCCC(=O)O [11-deoxy Prostaglandin F2.alpha.]
[1]
  percent Bodipy-positive cells: 18.1 ± 2.9%

## C[C@@H]1C[C@H]2[C@@H]3C[C@H](F)C4=CC(=O)C(Cl)=C[C@]4(C)[C@@]3(F)[C@@H](O)C[C@]2(C)[C@@]1(O)C(=O)CO
[2]
  percent Bodipy-positive cells: 6.15 ± 3.1%

## C=CCN1CCc2c(cc(O)c(O)c2Br)[C@@H](c2ccccc2)C1 [R(+)-6-Bromo-APB hydrobromide]
[2]
  percent Bodipy-positive cells: 60.5 ± 3%

## CC(C)(C)c1ccc(-c2nc3ccccc3[nH]2)cc1
[3]
  percent Bodipy-positive cells: 34.8 ± 9.9%
[2]
  percent Bodipy-positive cells: 45.5 ± 10%

## Cc1nc(-c2cn3c(n2)-c2ccc(-c4cnn(C(C)(C)C(N)=O)c4)cc2OCC3)n(C(C)C)n1 [Taselisib]
Library stock concentration: 80 uM
  percent Bodipy-positive cells: 12.9 ± 1.4%
[4]
  percent Bodipy-positive cells: 8.6 ± 0.31%
[5]
  percent Bodipy-positive cells: 11.5 ± 0.14%
[2]
  percent Bodipy-positive cells: 10.3 ± 0.86%

## Cc1nc(N)ncc1-c1nc(N2CCOCC2)c2sc(C(C)(C)O)cc2n1
[4]
  percent Bodipy-positive cells: 9.58 ± 1.2%
[5]
  percent Bodipy-positive cells: 18.5 ± 0.69%
[2]
  percent Bodipy-positive cells: 10.2 ± 2.1%

## O=C(/C=C/c1ccc(CN(CCO)CCc2c[nH]c3ccccc23)cc1)NO [LAQ824 (Dacinostat)]
[3]
  percent Bodipy-positive cells: 72.4 ± 6.8%
[2]
  percent Bodipy-positive cells: 81.9 ± 0.18%

## O=c1cc[nH]c(=S)[nH]1 [2-Thiouracil]
[3]
  percent Bodipy-positive cells: 7.63 ± 0.089%
[2]
  percent Bodipy-positive cells: 17.7 ± 2.9%

## O=c1cc[nH]c(=S)[nH]1 [2-thiouracil]
[2]
  percent Bodipy-positive cells: 38 ± 7.3%

## CCCCC/C=C\C\C=C/C=C/C=C/[C@@H](SC[C@H](N)C(=O)O)[C@@H](O)CCCC(=O)O [Leukotriene E4]
Library stock concentration: 100 uM
  percent Bodipy-positive cells: 5.98 ± 3.9%

## CC(C)CC(=O)N[C@H](C(=O)N[C@H](C(=O)N[C@@H](CC(C)C)[C@@H](O)CC(=O)N[C@@H](C)C(=O)N[C@@H](CC(C)C)[C@@H](O)CC(=O)O)C(C)C)C(C)C [Pepstatin]
Library stock concentration: 7.3 mM
  percent Bodipy-positive cells: 18.7 ± 3.1%

## CC(C)CC(=O)N[C@H](C(=O)N[C@H](C(=O)N[C@@H](CC(C)C)[C@@H](O)CC(=O)N[C@@H](C)C(=O)N[C@@H](CC(C)C)[C@@H](O)CC(=O)O)C(C)C)C(C)C [Pepstatin a]
Library stock concentration: 2.9 mM
  percent Bodipy-positive cells: 1.74 ± 1.2%

## CC(C)CC(=O)N[C@H](C(=O)N[C@H](C(=O)N[C@@H](CC(C)C)[C@@H](O)CC(=O)N[C@@H](C)C(=O)N[C@@H](CC(C)C)[C@@H](O)CC(=O)O)C(C)C)C(C)C [Pepstatin A]
  percent Bodipy-positive cells: 20.6 ± 2.3%

## O=S(=O)(NCCNC/C=C/c1ccc(Br)cc1)c1cccc2cnccc12
[2]
  percent Bodipy-positive cells: 92.3 ± 3.8%

## CC(=O)OC1CC2CCC1(C)C2(C)C (stereo not drawn)
[2]
  percent Bodipy-positive cells: 23.1 ± 5%

## Cc1cccc(C#Cc2ccccc2)n1 [6-Methyl-2-(phenylethynyl)pyridine hydrochloride]
[2]
  percent Bodipy-positive cells: 34.55 ± 0.075%

## Cc1cccc(C#Cc2ccccc2)n1 [MPEP hydrochloride]
[2]
  percent Bodipy-positive cells: 11.49 ± 0.086%

## Cc1cccc(C#Cc2ccccc2)n1
[3]
  percent Bodipy-positive cells: 13.1 ± 8%
[2]
  percent Bodipy-positive cells: 11.1 ± 4.4%

## N[C@H](C(=O)O)c1cc(O)cc(O)c1 [(S)-3,5-Dihydroxyphenylglycine]
[2]
  percent Bodipy-positive cells: 34 ± 19%

## N[C@H](C(=O)O)c1cc(O)cc(O)c1
[2]
  percent Bodipy-positive cells: 6.54 ± 2%

## COC(=O)C1=C(C)NC(C)=C(C(=O)OCCSc2ccccc2)C1C (stereo not drawn)
[2]
  percent Bodipy-positive cells: 13.51 ± 0.069%
Library stock concentration: 13.8 mM
  percent Bodipy-positive cells: 32.7 ± 3.6%
